# According to PMC3419646:
# Sequences of proteins named here, by UniProt entry; tags and fusion partners are left off. Residues count along the entry.
# UniProt P05067, residues 672-713: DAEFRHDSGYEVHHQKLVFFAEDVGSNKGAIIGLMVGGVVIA
# UniProt P07825: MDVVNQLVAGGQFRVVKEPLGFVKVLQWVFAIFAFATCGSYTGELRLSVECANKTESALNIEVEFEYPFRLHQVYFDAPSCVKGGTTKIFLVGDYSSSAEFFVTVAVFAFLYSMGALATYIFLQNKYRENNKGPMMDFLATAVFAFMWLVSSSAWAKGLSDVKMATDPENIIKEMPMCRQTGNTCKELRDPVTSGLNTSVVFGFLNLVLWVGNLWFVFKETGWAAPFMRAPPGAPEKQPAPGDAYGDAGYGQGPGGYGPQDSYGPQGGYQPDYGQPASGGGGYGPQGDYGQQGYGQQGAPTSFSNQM
# Results are given in words; binding and its absence hold for the method and conditions named. Binding seen in cells or lysates may run through a third protein. Some results given as binding are weak or reduced against the parent protein; the word gives no strength.
# Molecular target: amyloid-β peptide (Aβ42) (UniProt P05067)
# Test: pull-down; affinity column of Aβ42; hippocampal extracts passed over it; eluted fraction probed by western blot with antibodies against synaptic proteins; only the target purified
substance,measurement,value
Synaptophysin (from UniProt P07825 1-307),binding,binds
